These results are taken from article PMC11811199.

The target of this assay is T1, Flag-IRF3 (UniProt Q14653).
T1 sequence: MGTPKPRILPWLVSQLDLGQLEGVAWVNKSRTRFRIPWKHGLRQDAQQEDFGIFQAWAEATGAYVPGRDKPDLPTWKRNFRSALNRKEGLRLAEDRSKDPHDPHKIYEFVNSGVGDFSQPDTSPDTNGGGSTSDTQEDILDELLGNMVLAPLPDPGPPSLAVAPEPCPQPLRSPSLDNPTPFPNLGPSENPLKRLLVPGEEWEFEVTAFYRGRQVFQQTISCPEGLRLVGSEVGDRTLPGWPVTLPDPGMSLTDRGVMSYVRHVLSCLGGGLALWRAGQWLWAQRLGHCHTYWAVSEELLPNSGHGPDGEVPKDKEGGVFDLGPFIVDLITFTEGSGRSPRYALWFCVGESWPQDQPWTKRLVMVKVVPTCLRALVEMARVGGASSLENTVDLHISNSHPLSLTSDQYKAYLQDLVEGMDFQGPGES
Nature of the assay: co-IP.

No constants are given. Whether binding was seen depends on the method and setting. Binding seen in cells or lysates may run through a third protein. Some binding calls cover weakened binding; strength is not graded here. Tags and fused reporters may be left off the sequences shown.

B1: HA-TBK1 (protein, UniProt Q9UHD2 1-729)
chain: MQSTSNHLWLLSDILGQGATANVFRGRHKKTGDLFAIKVFNNISFLRPVDVQMREFEVLKKLNHKNIVKLFAIEEETTTRHKVLIMEFCPCGSLYTVLEEPSNAYGLPESEFLIVLRDVVGGMNHLRENGIVHRDIKPGNIMRVIGEDGQSVYKLTDFGAARELEDDEQFVSLYGTEEYLHPDMYERAVLRKDHQKKYGATVDLWSIGVTFYHAATGSLPFRPFEGPRRNKEVMYKIITGKPSGAISGVQKAENGPIDWSGDMPVSCSLSRGLQVLLTPVLANILEADQEKCWGFDQFFAETSDILHRMVIHVFSLQQMTAHKIYIHSYNTATIFHELVYKQTKIISSNQELIYEGRRLVLEPGRLAQHFPKTTEENPIFVVSREPLNTIGLIYEKISLPKVHPRYDLDGDASMAKAITGVVCYACRIASTLLLYQELMRKGIRWLIELIKDDYNETVHKKTEVVITLDFCIRNIEKTVKVYEKLMKINLEAAELGEISDIHTKLLRLSSSQGTIETSLQDIDSRLSPGGSLADAWAHQEGTHPKDRNVEKLQVLLNCMTEIYYQFKKDKAERRLAYNEEQIHKFDKQKLYYHATKAMTHFTDECVKKYEAFLNKSEEWIRKMLHLRKQLLSLTNQCFDIEEEVSKYQEYTNELQETLPQKMFTASSGIKHTMTPIYPSSNTLVEMTLGMKKLKEEMEGVVKELAENNHILERFGSLTMDGGLRNVDCL
Regarding B1, the binding result is “binds”.
